Measurements reported in PubChem BioAssay AID504786 (Drosophila RNAi Screening Center, 2011).
The deposit covers about 21,000 reagents; shown is an unselected part of those that have a named target and a result. 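Primary screen; positive scores mean lost reporter signal, so the sign may be inverted from the usual convention.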 Names joined by + are all predicted targets of the reagent. Reagent sequences are not shown.

Aim: 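Knock-downs reducing HIF reporter induction by the iron chelator DFO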 (primary screen)
Cell system: Drosophila S2 cells with a stable HIF luciferase reporter
Reagents: long dsRNA against Drosophila genes, about 0.2 µg dsRNA per well of a 384-well plate
Duration: three days of knock-down, then 20 h of DFO before reading
Conditions: desferrioxamine (DFO) at 100 µM, an iron chelator that mimics hypoxia, for 20 h
Measured: 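HIF reporter luminescence in cells given 100 µM DFO for 20 h, using the mouse ldh-a hypoxia-response element, scored as per-plate z-scores; higher means greater loss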
Scale: z-score: higher = stronger loss of HIF reporter signal

The first 10 entries, to show the layout:
Target gene	amplicon	z-score, replicate 1	z-score, replicate 2	z-score, replicate 3	z-score, replicate 4
PGAP3 (Post-GPI attachment to proteins 3)	DRSC04989	-0.2	-0.9		
sna (snail)	DRSC03613	-0.4	-0.2		
bor (belphegor)	DRSC16915	-0.1	-0.1		
CG4942	DRSC10462	-0.2	-0.3		
tum (tumbleweed)	DRSC07575	-0.2	-0.2		
CG1998	DRSC19829	-0.1	-0.9		
CG11815	DRSC08209	-0.4	-0.4		
CG8245	DRSC04901	0	-0.2		
CG10934	DRSC06017	-0.3	-0.1		
mkg-p + Tpt	DRSC10777	0.3	0.3		

The listing, from the first entry:
Target gene	amplicon	z-score, replicate 1	z-score, replicate 2	z-score, replicate 3	z-score, replicate 4
PGAP3 (Post-GPI attachment to proteins 3)	DRSC04989	-0.2	-0.9		
sna (snail)	DRSC03613	-0.4	-0.2		
bor (belphegor)	DRSC16915	-0.1	-0.1		
CG4942	DRSC10462	-0.2	-0.3		
tum (tumbleweed)	DRSC07575	-0.2	-0.2		
CG1998	DRSC19829	-0.1	-0.9		
CG11815	DRSC08209	-0.4	-0.4		
CG8245	DRSC04901	0	-0.2		
CG10934	DRSC06017	-0.3	-0.1		
mkg-p + Tpt	DRSC10777	0.3	0.3		
CG34299	DRSC13974	0.1	-0.2		
Cep135 (Centrosomal protein 135kDa)	DRSC09345	-0.5	0.1		
Cep135 (Centrosomal protein 135kDa)	DRSC10244	-0.3	-0.5		
CG17258	DRSC00495	-0.2	-0.1		
CG5776	DRSC02891	-0.2	-0.3		
Atx2 (Ataxin-2)	DRSC15727	5.2	5.4		
CG12672	DRSC19482	-0.2	0	-1	-0.3
Bre1	DRSC09742	0.2	0.6		
CG5262	DRSC11773	-0.4	-0.5		
CG1239	DRSC12204	-0.3	-0.3		
Noc1 (Nucleolar complex protein 1)	DRSC10921	-0.1	0.6		
CG15548	DRSC15086	-0.5	-0.4		
QC (Glutaminyl cyclase)	DRSC09736	-0.2	-0.3		
Tpc2	DRSC04322	-0.2	0.5		
Csl4	DRSC02944	-0.3	-0.4		
CG13220	DRSC06342	-0.1	-0.1		
CG8230	DRSC05931	-0.4	-0.3		
Egm (Enigma)	DRSC07319	-0.3	-0.8		
idc (identity crisis)	DRSC15680	-0.3	-0.7		
CG1523	DRSC15033	-0.3	0		
CG13312	DRSC09983	-0.3	0		
Hmgcr (HMG Coenzyme A reductase)	DRSC16704	1.5	-0.2		
ort (ora transientless)	DRSC16240	-0.3	0.3		
CG9689	DRSC18440	-0.1	0		
su(sable) (suppressor of sable)	DRSC18839	0	0.2		
CG17896	DRSC18502	-0.2	0		
TH1	DRSC20289	-0.5	0		
SLIRP1 + anox	DRSC20542	-0.3	-0.6		
PK1-R (Pyrokinin 1 receptor)	DRSC16577	-0.4	-0.8		
Sgs5bis	DRSC16263	-0.2	0.1		
BuGZ (Bub3 interacting GLEBS and Zinc finger domain protein)	DRSC02642	0.7	1.1		
BuGZ (Bub3 interacting GLEBS and Zinc finger domain protein)	DRSC02643	-0.3	-0.3		
CG32369	DRSC10042	-0.4	-0.3		
CG32369	DRSC10834	-0.4	-0.6		
CG14861	DRSC14984	-0.2	0.4		
TwdlH (TweedleH)	DRSC14735	0	1.1		
roh (reduction of Rh1)	DRSC04003	1.7	1.7		
Cals (Calsyntenin)	DRSC17196	-0.3	-0.6		
ppk7 (pickpocket 7)	DRSC03236	-0.1	-0.5		
CG6356	DRSC16026	-0.3	-0.2		
CG32639	DRSC18972	-0.2	0		
Zir (Zizimin-related)	DRSC00307	-0.2	-0.4		
Mob2	DRSC09117	-0.1	-0.3		
Mob2	DRSC09119	-0.4	-0.9		
Mob2	DRSC09856	-0.4	-0.9		
CG14088	DRSC10092	-0.2	0.3		
CG31674	DRSC03208	-0.2	0		
uex (unextended)	DRSC20784	-0.6	-0.2		
uex (unextended)	DRSC20786	-0.4	-0.2		
Pka-R1 (Protein kinase, cAMP-dependent, regulatory subunit type 1)	DRSC11674	-0.3	-0.7		
Pka-R1 (Protein kinase, cAMP-dependent, regulatory subunit type 1)	DRSC11875	-0.3	-0.3		
CG40341 (retired record)	DRSC01767	-0.4	0.1		
CG40341 (retired record)	DRSC03750	-0.5	-0.3		
Mdr50 (Multi drug resistance 50)	DRSC07467	-0.1	-0.1		
CG32812	DRSC18478	-0.3	-0.4		
Vps4 (Vacuolar protein sorting 4)	DRSC19338	0.9	2.5		
CG31955	DRSC00285	-0.1	-0.2		
CG31495	DRSC16762	-0.3	-0.7		
CG9973 (retired record)	DRSC08646	-0.1	-0.4		
bug (bunker gear)	DRSC07137	-0.3	-0.5		
Cpr78Cc (Cuticular protein 78Cc)	DRSC11846	-0.2	-0.3		
CG6244	DRSC10609	-0.2	-0.4		
CG4854	DRSC15663	0.6	0.1		
CG6497	DRSC10654	-0.2	-0.4		
CG30393	DRSC04253	0	-0.1		
htk (hat-trick)	DRSC20029		3.7		
htk (hat-trick)	DRSC20031	-0.1	0.5		
Sgs7 (Salivary gland secretion 7)	DRSC11281	-0.3	1.2		
Rab11	DRSC16809	1.3	0.4		
Rcd4 (Reduction in Cnn dots 4)	DRSC02597	-0.4	0		
comm2	DRSC09881	1.1	-0.5		
comm2	DRSC10877	-0.4	-0.6		
CG7778	DRSC03067	-0.3	-0.2		
